Experimental data from CN108752475A.
These are yes or no findings as the source states them, for the method shown. Some binding calls cover weakened binding; strength is not graded here.

By UniProt entry, the sequences of proteins in these tests, tags left out. Where a name states a change or a piece, a line headed by the entry shows the natural chain unless it says otherwise.
UniProt P28907: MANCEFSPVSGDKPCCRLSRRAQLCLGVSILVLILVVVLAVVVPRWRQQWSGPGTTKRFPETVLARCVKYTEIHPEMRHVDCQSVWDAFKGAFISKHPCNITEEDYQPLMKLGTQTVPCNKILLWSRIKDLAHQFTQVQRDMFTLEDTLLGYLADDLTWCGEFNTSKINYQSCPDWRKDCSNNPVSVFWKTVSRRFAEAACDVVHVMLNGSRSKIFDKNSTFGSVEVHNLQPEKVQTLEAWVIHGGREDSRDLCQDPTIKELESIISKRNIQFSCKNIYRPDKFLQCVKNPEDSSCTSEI

molecular target: 人CD38胞外区 (hCD38) with C-terminal His tag, hCD38-his (human (homo sapiens)) (UniProt P28907); assay: ELISA, hCD38-his coated at 1.5 μg/ml, HRP anti-human IgG detection

| Binder | binding |
| --- | --- |
| S5B5 (mouse-human chimeric antibody, human IgG1) (antibody) scFv: QVKLQQFGAELVKPGASVKISCKATGYTFSSYWIGWVKQRPGHGLEWIGEILPGTGSTNYNEKFKDKATFTADTSPNTAYMQLSSLTSEDSAVYYCARWDGNYGDYALDYWGQGTSVTVSAGGGGSGGGGSGGGGSDIVMTQSPSSMYASLGERVTITCKASQDINSYLSWFQQKPGKSPKTLIYRANRLVDGVPSRFSGSGSGQDYSLTISSLEYEDMGIYYCLQYDEFPYTFGGGTKLEIK | binds |
| S5B4 (mouse-human chimeric antibody, human IgG1) (antibody) scFv: QVKLQQSGAELMKPGASVKISCKATGYTFSSYWIGWLKQRPGHGLEWVGELLPGSGSTNYNEKFKGKATFTADTSSNTAYMQLSSLTSEDSAVYYCARWDGNYGDYTLDYWGQGTSVTVSSGGGGSGGGGSGGGGSDIVMTQSPSSMYASLGERVTITCKASQDINSYLSWFQQKPGKSPKTLIYRANRLVDGVPSRFSGSGSGQDYSLTISSLEYEDMGIYYCLQYDEFPYTFGGGTKLEMK | binds |
| S5D3 (mouse-human chimeric antibody, human IgG1) (antibody) scFv: QVQLQQSGAELMKPGASVKISCKATGYTSSSYWIEWVKQRPGHGLEWIGEILPGSGSTNYNEKFKGKATFTADTSSNTAYMQLSSLTSEDSAVYYCARLYDNSYFDYWGQGTSLTVSSGGGGSGGGGSGGGGSDIVMTQSPSSMYASLGERVTITCKASQDINSYLSWFQQKPGKSPKTLIYRANRLVDGVPSRFSGSGSGQDYSLTISSLEYEDMGIYYCLQYDEFPYTFGGGTKLEMK | binds |

Second part, the binder after the results:

| binding | Binder |
| --- | --- |
| binds | S5E3 (mouse-human chimeric antibody, human IgG1) (antibody) scFv: QVQLQQSGPEVVKPGASVKMSCKATGYTSRSYWIEWVKQRPGHGLEWIGEILPGSGSTNYNEKFKGKATFTADTSSNTAYMQLSSLTSEDSAVYYCARWDGNYGDFVLDYWGQGTSVTVSSGGGGSGGGGSGGGGSDIQMTQSPSSMYASLGERVTITCKASQDINSYLSWFQQKPGKSPKTLIYRANRLVDGVPSRFSGSGSGQDYFLTISSLEYEDMGIYYCLQYDEFPYTFGGGTKLEMK |
| binds | S5B7 (mouse-human chimeric antibody, human IgG1) (antibody) scFv: QVQLQQPGSVLVRPGASVKLSCKATGYTFSSYWIEWVKQRPGHGLEWIGDILPGTGTTNYNEKFKGKATFTADTSSNTAYMQFSSLTSEDSAVYYCASSYGNYVWGQGTSLTVSSGGGGSGGGGSGGGGSDVVMTQSPASLAVSLGQRATISCKASQSVDYDGDSYMNWYQQKPGQPPRLLIYAASNLESGIPARFSGSGSGTDFTLNIHPVEEEDAATYYCQQGNGAPRTFGGGTKLEIK |
